PubChem BioAssay AID504774 | Drosophila RNAi Screening Center | 2011

Test: 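Genes required for cells to withstand methyl methanesulphonate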 (primary screen)
Cell system: Drosophila Kc167 cells
Reagent: long dsRNA against Drosophila genes, about 0.25 µg dsRNA per well
Timing: about 6 days: 3 days knock-down, then 3 days with or without MMS
Challenge: methyl methanesulphonate 0.004% (w/v) for 3 days after knock-down
Detection: 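Viability in wells given MMS, read as ATP luminescence, normalised by quantiles plate by plate and averaged across replicates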
Reading the numbers: mean viability with MMS: higher = more surviving cells after MMS
The deposit covers about 23,000 reagents; shown is a random part of those with a known target gene and a result. 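Values are quantile-normalised luminescence on an arbitrary scale; higher means more cells surviving MMS.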 A plus sign joins genes that one reagent is predicted to hit. Not all columns of the deposit are shown.

| Target gene | PubChem SID | mean viability with MMS |
| --- | --- | --- |
| SPE (Spatzle-Processing Enzyme) | SID104194927 | 3.55e6 |
| sxc (super sex combs) | SID104184703 | 3.83e6 |
| inaC (inactivation no afterpotential C) | SID104187424 | 3.50e6 |
| Mkp3 (Mitogen-activated protein kinase phosphatase 3) | SID104189876 | 3.51e6 |
| Mkp3 (Mitogen-activated protein kinase phosphatase 3) | SID104189877 | 3.52e6 |
| CG10214 | SID104194005 | 3.44e6 |
| GNBP-like3 (GNBP-like 3) | SID104186177 | 3.50e6 |
| CG15237 | SID104184763 | 3.49e6 |
| IFT43 (Intraflagellar transport 43) | SID104182684 | 3.60e6 |
| CG31926 | SID104180087 | 3.92e6 |
| sll (slalom) | SID104196063 | 3.58e6 |
| Pfas (Phosphoribosylformylglycinamidine synthase) | SID104183272 | 3.64e6 |
| P5cr (Pyrroline 5-carboyxlate reductase) | SID104196574 | 3.44e6 |
| CG32639 | SID104198764 | 3.25e6 |
| CG33468 | SID104202297 | 3.48e6 |
| RhoGAP102A (Rho GTPase activating protein at 102A) | SID104196902 | 3.51e6 |
| RhoGAP102A (Rho GTPase activating protein at 102A) | SID104196937 | 3.55e6 |
| Hpd (4-hydroxyphenylpyruvate dioxygenase) | SID104191462 | 3.62e6 |
| CG5984 | SID104195722 | 3.59e6 |
| CG15450 | SID104200314 | 3.51e6 |
| sesB (stress-sensitive B) | SID104200163 | 3.45e6 |
| CG17085 (retired record) | SID104182357 | 3.62e6 |
| CG17085 (retired record) | SID104182358 | 3.66e6 |
| Cyp28d2 (Cytochrome P450 28d2) | SID104183091 | 3.58e6 |
| Ets21C (Ets at 21C) | SID104180543 | 3.58e6 |
| CG15891 + CG15892 | SID104197887 | 3.53e6 |
| CG15891 + CG15892 | SID104197888 | 3.57e6 |
| CG13926 | SID104188187 | 3.51e6 |
| Sec61beta (Sec61 beta subunit) | SID104187340 | 3.68e6 |
| Sec61beta (Sec61 beta subunit) | SID104201234 | 3.28e6 |
| CG15399 | SID104180205 | 3.34e6 |
| CG12926 | SID104186031 | 3.50e6 |
| CG12926 | SID104201550 | 3.50e6 |
| Gmap (Golgi microtubule-associated protein) | SID104199780 | 3.52e6 |
| Gmap (Golgi microtubule-associated protein) | SID104199849 | 3.65e6 |
| CG12849 | SID104183921 | 3.47e6 |
| CG16711 | SID104190012 | 3.70e6 |
| Acp65Aa (Adult cuticle protein 65Aa) | SID104189455 | 3.55e6 |
| CG8042 | SID104189468 | 3.50e6 |
| wg (wingless) | SID104183428 | 3.48e6 |
| Nmdar2 (NMDA receptor 2) | SID104197975 | 3.95e6 |
| Nmdar2 (NMDA receptor 2) | SID104198303 | 3.85e6 |
| Nmdar2 (NMDA receptor 2) | SID104198361 | 3.69e6 |
| CG8738 | SID104187048 | 3.49e6 |
| RpL27A (Ribosomal protein L27A) | SID104180573 | 2.71e6 |
| CG32117 | SID104201342 | 3.58e6 |

Entries listed so far whose gene name starts with M or m:
| Target gene | PubChem SID | mean viability with MMS |
| --- | --- | --- |
| Mkp3 (Mitogen-activated protein kinase phosphatase 3) | SID104189876 | 3.51e6 |
| Mkp3 (Mitogen-activated protein kinase phosphatase 3) | SID104189877 | 3.52e6 |
